Experimental data taken from PubChem BioAssay AID624297 (National Center for Advancing Translational Sciences (NCATS), 2012).
The campaign covered roughly 340,000 compounds. About 6,200 (1.8%) were called active. The inconclusive results got no clear call from the source; some entries with a clear call stand among them for comparison. Calls come from the whole dose curve; as a rule, active = well fitted activation curve with a large enough effect; inconclusive = small, poorly fitted or top-dose-only effect; inactive = no such curve, though single readings can be large or run the other way. Where the call is inconclusive, the potency comes from a doubtful curve fit.

Assay: A quantitative high throughput screen for small molecules that induce DNA re-replication in SW480 colon adenocarcinoma cells. For re-replication activation: % of control where 0% means no effect. Note: nearly all actives have a fitted effect of over 55% in size.
Details: Hoechst DNA content imaging, 48 h; re-replication activation: at 46.1 µM (top of the series) unless noted
Method in brief: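 DNA re-replication was detected as more nuclei of elevated Hoechst intensity after 48 hr exposure to compound (23 nL pinned per well of 250 cells).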
Potency is the fitted concentration of half-maximal effect.

SMILES | Potency | re-replication activation
CNC(=O)C(NC(=O)CNC(=O)c1ccc(Cl)cc1)C(C)(C)C (configuration not stated) | inconclusive: 1.84 µM [activator, single point] | 
COc1cccc(/C=N/NC(=O)CCc2c(C)n[nH]c2C)c1O | inconclusive: 29.1 µM [activator, single point] | 
COc1cc(/C=C2\SC(=O)N(CC(=O)Nc3ccccc3F)C2=O)cc(Cl)c1O | inconclusive: 29.1 µM [activator, single point] | 
Cn1cnc(S(=O)(=O)N2CCN(c3ccc(F)cc3)CC2)c1 |  | inactive: -7.47%
CC(C)CNC(=O)COC(=O)Cc1ccc(Cl)cc1 |  | inactive: -14.7%
COCCOC(=O)c1[nH]c2c(c1C)C(=O)CC(c1ccc(OC)cc1)C2 (configuration not stated) | inconclusive: 29.1 µM [activator, single point] | 
CCN(C(=O)CSc1nc2ccccc2n1C)C1CCS(=O)(=O)C1 (configuration not stated) |  | inactive: -18.4%
COc1ccccc1N(C)S(=O)(=O)c1ccc(Cl)c(C(=O)Nc2ccncc2)c1 | inconclusive: 0.731 µM [activator, full curve, poor fit] | 
CCOC(=O)c1[nH]c(C)c(C(=O)OCC)c1C |  | inactive: -18.4%
CCN(Cc1ccncc1)C(=O)c1cc(COc2ccc(C)c(C)c2)on1 |  | inactive: -3.86%
CCCS(=O)(=O)c1nc(S(=O)(=O)c2ccc(C)cc2)c(N2CCOCC2)s1 | inconclusive: 9.2 µM [activator, partial curve, poor fit] | 
CCOC(=O)C1CCCN(CCc2ccccc2)C1 (configuration not stated) |  | inactive: 6.01%
Cc1csc(NC(=O)[C@@H]2CCCN2C(=O)c2cccs2)n1 | inconclusive: 6.51 µM [activator, partial curve, poor fit] | 
C=CCn1c(CCc2cc(C(C)(C)C)c(O)c(C(C)(C)C)c2)n[nH]c1=S |  | inactive: 15.4%
Cc1ccc(-n2nnnc2-c2cccnc2)cc1 |  | inactive: -21.1%
Cc1c(-c2ccccc2)[n+](=O)c2c(n1[O-])CCCC2 | inconclusive: 0.0046 µM [activator, full curve, poor fit] | 
CN1CCN(CC(C)(C)NS(=O)(=O)c2ccccc2)CC1 |  | inactive: -1.33%
COc1ccc(NC(=O)c2c(NC(=O)CNCc3ccco3)sc3c2CCC3)cc1 | inconclusive: 29.1 µM [activator, single point] | 
CCN1CCc2nc3ccccc3c(C(=O)Nc3ccc(F)cc3)c2C1 | inconclusive: 0.651 µM [activator, full curve, poor fit] | 
O=C(COC(=O)c1ccc(Br)o1)Nc1ncc([N+](=O)[O-])s1 |  | inactive: 0.389%
Cn1cncc1C#Cc1c(C=O)[nH]c2ccccc12 | inconclusive: 23.1 µM [activator, single point] | 
Cn1c(SCCOc2ccccc2Cl)nnc1-c1cccs1 |  | inactive: -2.43%
Cc1[nH]c(=O)c(C(=O)/C=C/c2ccccc2)c2c1CCCC2 | active: 20.6 µM | 
CC(C)=CC1C(C(=O)NCCc2ccccc2)C1(C)C (configuration not stated) |  | inactive: 0.797%

Three compounds picked at random from the list so far:
SMILES | Potency | re-replication activation
CCOC(=O)c1[nH]c(C)c(C(=O)OCC)c1C |  | inactive: -18.4%
COc1cccc(/C=N/NC(=O)CCc2c(C)n[nH]c2C)c1O | inconclusive: 29.1 µM [activator, single point] | 
CCCS(=O)(=O)c1nc(S(=O)(=O)c2ccc(C)cc2)c(N2CCOCC2)s1 | inconclusive: 9.2 µM [activator, partial curve, poor fit] | 

Remaining list, next part:

SMILES | Potency | re-replication activation
COc1ccccc1NC(=O)N(Cc1ccco1)Cc1cc2cc(C)cc(C)c2[nH]c1=O | inconclusive: 18.4 µM [activator, single point] | 
CCCC(=O)Nc1nn(C)c2nc3ccc(C)cc3cc12 | inconclusive: 0.82 µM [activator, full curve, poor fit] | 
COc1ccccc1NS(=O)(=O)c1cccc(NC(=O)Nc2ccccc2)c1 | inconclusive: 0.82 µM [activator, partial curve, poor fit] | 
COc1cc(/C=N/N2C(=O)CSC2=S)ccc1O |  | inactive: -12.1%
C/C(=N\NC(=O)c1c([N+](=O)[O-])c(C)nn1C)c1ccc(NC(=O)c2ccc(C)o2)cc1 | inconclusive: 25.9 µM [activator, partial curve, poor fit] | 
Cc1cc(=O)n2[nH]c(SCc3c(F)cccc3Cl)nc2n1 |  | inactive: -8.04%
COc1cc(Cn2c(N)c(C#N)c3nc4ccccc4nc32)cc(OC)c1 | active: 8.2 µM | 
COc1ccc2c(c1)CCC1C2=NN(/C(C)=C/C(C)=O)C1c1cccc(F)c1 (configuration not stated) | inconclusive: 29.1 µM [activator, single point] | 
Cc1cc(NC(=O)CCCN2C(=O)/C(=C/c3ccccc3Cl)SC2=S)no1 | inconclusive: 29.1 µM [activator, single point] | 
CSCc1cc(N2CCCC2)nc(-c2ccccc2)n1 | inconclusive: 0.517 µM [activator, partial curve, poor fit] | 
Fc1ccccc1C(c1nnnn1C1CCCC1)N1CCN(Cc2ccccc2)CC1 (configuration not stated) |  | inactive: -1.17%
OC(c1cc(C(F)(F)F)nc2c(C(F)(F)F)cccc12)C1CCCCN1 (configuration not stated) | inconclusive: 29.1 µM [activator, single point] | 
Cc1ccc(NC(=O)Nc2nnc(Cc3ccc(F)cc3)s2)cc1 | inconclusive: 4.11 µM [activator, full curve] | 
O=C(/C=C/c1ccccc1)Nc1cc(S(=O)(=O)N2CCOCC2)ccc1N1CCOCC1 | inconclusive: 0.0041 µM [activator, full curve, poor fit] | 
Cc1nonc1NC(=O)CSc1nc(CCC2CCCC2)nc2ccccc12 |  | inactive: -4.52%
CC(C)(CNC(=S)NCCc1ccccc1)CNC(=S)NCCc1ccccc1 | inconclusive: 29.1 µM [activator, single point] | 
COC(=O)COc1cc(OCC(=O)OC)c2c(C)c(Cl)c(=O)oc2c1 |  | inactive: 1.02%
Cc1cccc(-n2nnnc2SCn2nnc3ccccc3c2=O)c1 |  | inactive: -0.946%
Oc1ccccc1-c1cc(-c2ccccc2)n[nH]1 | inconclusive: 6.51 µM [activator, single point] | 
Oc1ccc(-c2csc(-c3cccnc3)n2)c(O)c1 | inconclusive: 16.4 µM [activator, single point] | 
CCOC(=O)C1=CNS(=O)(=O)NC1c1ccc(C(=O)OC)cc1 (configuration not stated) |  | inactive: -25.6% [at 9.22 µM]
C=CCc1ccccc1OCCOc1ccc([N+](=O)[O-])cc1/C=N/NC(N)=O | inconclusive: 13 µM [activator, single point] | 
CCOC(=O)c1c(/N=C/C2=C(O)CC(C)(C)CC2=O)sc(C(C)=O)c1C | inconclusive: 23.1 µM [activator, partial curve, poor fit] | 
